Laboratory results reported in the supplement of paper PMC10849652.
The list shows a part of the results.

Sequences of proteins named here, by UniProt entry; tags and fusion partners are left off. A change or cut given only in a name is not applied to a line headed by its entry.
UniProt P21953: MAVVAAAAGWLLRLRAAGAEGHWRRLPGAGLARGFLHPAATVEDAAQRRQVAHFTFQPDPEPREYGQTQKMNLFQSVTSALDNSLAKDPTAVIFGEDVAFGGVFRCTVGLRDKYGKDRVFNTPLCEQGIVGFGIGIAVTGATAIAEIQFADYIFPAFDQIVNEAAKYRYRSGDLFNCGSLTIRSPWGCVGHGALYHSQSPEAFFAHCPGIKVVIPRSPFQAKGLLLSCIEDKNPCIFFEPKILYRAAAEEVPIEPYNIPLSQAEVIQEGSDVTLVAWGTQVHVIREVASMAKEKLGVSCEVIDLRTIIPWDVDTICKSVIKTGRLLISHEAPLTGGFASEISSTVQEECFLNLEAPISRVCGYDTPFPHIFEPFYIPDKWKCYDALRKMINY
UniProt Q8WY22: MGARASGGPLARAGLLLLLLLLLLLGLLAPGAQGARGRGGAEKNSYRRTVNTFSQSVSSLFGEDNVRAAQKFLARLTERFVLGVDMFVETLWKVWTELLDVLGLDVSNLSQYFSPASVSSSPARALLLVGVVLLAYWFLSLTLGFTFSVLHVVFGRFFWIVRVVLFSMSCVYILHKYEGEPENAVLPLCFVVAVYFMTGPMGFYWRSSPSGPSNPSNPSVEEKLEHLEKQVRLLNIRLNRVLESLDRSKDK
UniProt Q9NUP1: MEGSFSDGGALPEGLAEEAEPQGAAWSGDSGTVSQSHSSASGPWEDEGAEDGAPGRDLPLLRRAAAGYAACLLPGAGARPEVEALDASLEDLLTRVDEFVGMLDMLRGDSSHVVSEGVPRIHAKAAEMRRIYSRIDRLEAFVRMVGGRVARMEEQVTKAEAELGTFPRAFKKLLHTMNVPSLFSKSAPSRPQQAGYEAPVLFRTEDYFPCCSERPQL
UniProt Q96GS4: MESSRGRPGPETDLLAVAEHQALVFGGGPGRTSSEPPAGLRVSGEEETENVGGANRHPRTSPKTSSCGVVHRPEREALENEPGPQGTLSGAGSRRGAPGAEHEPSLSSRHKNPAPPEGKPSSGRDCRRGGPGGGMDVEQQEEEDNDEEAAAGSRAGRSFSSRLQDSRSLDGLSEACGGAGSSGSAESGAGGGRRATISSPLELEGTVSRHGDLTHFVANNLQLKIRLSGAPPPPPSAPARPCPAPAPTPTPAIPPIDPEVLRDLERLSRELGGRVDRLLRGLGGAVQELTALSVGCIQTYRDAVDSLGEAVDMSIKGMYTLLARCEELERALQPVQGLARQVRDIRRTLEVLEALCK
UniProt Q9UQB8: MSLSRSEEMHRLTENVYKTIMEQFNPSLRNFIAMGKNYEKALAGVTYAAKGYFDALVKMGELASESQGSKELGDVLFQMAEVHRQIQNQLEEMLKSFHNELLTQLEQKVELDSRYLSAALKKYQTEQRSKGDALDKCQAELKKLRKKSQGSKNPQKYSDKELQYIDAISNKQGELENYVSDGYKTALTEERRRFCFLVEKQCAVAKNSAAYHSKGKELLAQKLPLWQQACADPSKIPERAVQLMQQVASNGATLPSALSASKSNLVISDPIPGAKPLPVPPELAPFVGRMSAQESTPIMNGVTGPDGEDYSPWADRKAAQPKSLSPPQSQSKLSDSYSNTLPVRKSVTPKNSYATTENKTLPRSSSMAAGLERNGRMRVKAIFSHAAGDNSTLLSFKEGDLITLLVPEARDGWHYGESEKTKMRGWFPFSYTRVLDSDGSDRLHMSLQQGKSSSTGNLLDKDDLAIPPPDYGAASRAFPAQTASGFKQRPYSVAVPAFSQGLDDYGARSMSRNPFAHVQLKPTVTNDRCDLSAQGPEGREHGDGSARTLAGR
UniProt P54687: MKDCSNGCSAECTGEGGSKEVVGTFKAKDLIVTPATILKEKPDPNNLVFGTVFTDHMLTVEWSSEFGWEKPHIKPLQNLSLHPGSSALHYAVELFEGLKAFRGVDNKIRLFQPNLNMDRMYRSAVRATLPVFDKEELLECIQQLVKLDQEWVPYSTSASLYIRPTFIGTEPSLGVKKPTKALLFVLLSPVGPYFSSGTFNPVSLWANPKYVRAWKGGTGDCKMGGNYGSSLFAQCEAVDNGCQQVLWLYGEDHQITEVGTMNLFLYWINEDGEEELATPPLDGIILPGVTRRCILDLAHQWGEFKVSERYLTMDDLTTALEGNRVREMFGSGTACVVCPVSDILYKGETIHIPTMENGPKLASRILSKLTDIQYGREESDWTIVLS
UniProt Q14457, whole entry, looked up: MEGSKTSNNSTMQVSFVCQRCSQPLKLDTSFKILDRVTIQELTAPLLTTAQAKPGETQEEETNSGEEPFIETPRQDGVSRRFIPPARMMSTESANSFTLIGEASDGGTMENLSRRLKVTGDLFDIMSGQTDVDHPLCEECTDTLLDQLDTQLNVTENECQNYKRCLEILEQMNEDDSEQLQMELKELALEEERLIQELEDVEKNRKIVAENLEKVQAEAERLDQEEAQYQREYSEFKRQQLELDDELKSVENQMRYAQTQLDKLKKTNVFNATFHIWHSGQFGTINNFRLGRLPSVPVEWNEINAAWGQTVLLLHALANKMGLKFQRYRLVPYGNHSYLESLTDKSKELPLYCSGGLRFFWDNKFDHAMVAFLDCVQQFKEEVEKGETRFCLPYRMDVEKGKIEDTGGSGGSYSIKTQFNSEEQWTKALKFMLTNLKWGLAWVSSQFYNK
UniProt P11274: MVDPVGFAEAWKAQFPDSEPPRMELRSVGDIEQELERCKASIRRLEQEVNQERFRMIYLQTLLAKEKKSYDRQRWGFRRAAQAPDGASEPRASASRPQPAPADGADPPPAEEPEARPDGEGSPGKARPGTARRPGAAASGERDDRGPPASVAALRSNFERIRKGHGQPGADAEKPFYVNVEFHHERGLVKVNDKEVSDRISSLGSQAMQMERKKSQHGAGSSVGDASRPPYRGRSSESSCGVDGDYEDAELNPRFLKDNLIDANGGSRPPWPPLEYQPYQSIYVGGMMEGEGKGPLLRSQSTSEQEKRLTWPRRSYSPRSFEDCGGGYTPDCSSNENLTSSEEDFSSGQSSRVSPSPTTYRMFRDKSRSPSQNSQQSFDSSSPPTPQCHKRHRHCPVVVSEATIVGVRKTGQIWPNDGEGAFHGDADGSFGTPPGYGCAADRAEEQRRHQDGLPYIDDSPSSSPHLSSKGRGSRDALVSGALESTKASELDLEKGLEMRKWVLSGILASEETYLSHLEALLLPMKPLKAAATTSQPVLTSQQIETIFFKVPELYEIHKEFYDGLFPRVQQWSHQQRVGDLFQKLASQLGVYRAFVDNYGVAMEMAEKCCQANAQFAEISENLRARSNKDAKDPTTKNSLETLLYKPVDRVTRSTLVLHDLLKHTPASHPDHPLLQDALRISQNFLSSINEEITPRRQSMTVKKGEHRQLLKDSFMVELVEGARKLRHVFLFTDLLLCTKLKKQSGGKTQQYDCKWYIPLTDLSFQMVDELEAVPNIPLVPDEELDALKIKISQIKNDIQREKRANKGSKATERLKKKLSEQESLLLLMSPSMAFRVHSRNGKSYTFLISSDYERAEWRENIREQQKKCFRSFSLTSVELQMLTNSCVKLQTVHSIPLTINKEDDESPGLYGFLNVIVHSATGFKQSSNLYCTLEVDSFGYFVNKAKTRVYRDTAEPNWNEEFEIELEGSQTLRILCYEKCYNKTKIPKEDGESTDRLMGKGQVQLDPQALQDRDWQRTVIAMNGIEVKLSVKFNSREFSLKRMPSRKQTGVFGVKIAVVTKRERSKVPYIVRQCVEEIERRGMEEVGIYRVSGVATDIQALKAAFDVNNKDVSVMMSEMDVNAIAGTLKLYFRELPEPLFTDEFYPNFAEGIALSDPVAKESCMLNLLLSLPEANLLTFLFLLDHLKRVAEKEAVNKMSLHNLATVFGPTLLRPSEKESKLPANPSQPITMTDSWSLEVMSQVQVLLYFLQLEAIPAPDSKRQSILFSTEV

Key:
Assay in all cases: log2 fold change, soluble protein after heating vs DMSO (PISA); higher = thermal stabilisation; K562 lysate, 10 uM; active = over 0.2 and 3.5 SD of the protein, either way, in both replicates (recomputed)
vemurafenib = compound: CCCS(=O)(=O)Nc1ccc(F)c(C(=O)c2c[nH]c3ncc(-c4ccc(Cl)cc4)cc23)c1F [vemurafenib]
In short: (§1)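 K562 pellets were dounce-homogenised in PBS pH 7.4 with 1 mM MgCl2, and the crude extract at 1 mg/mL protein was treated with 10 μM compound for 30 min. Aliquots were heated for 3 min across 48°C-58°C, pooled, and brought to 0.5% NP-40 at 4°C; soluble protein was the supernatant after 21,000xg for 90 min. Soluble protein was quantified by TMTpro 16plex LC-MS/MS with channel sums equalised, and reported as log2 fold change in thermal stability against DMSO controls, with values from duplicates.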

[1] = compound: CCCS(=O)(=O)Nc1ccc(F)c(C(=O)c2c[nH]c3ncc(Cl)cc23)c1F
In short: as §1

barasertib = compound: CCN(CCCOc1ccc2c(Nc3cc(CC(=O)Nc4cccc(F)c4)[nH]n3)ncnc2c1)CCOP(=O)(O)O [barasertib]
In short: as §1

[2] = compound: CC[C@@H]1C(=O)N(C)c2cnc(Nc3ccc(C(=O)NC4CCN(C)CC4)cc3OC)nc2N1C1CCCC1
In short: as §1

volasertib = compound: CC[C@@H]1C(=O)N(C)c2cnc(Nc3ccc(C(=O)N[C@H]4CC[C@H](N5CCN(CC6CC6)CC5)CC4)cc3OC)nc2N1C(C)C [volasertib]
In short: as §1

[3] = compound: CCn1c(C(=O)N(C2CC2)C2CC2)cc2c3c(ncn3C)c(Nc3cc(C)n(C)n3)nc21
In short: as §1

[4] = compound: CCn1cc(-c2ccnc3[nH]c(-c4cccc(CN(C)C)c4)cc23)c(-c2ccc(NC(=O)N(C)C)cc2)n1
In short: as §1

[5] = compound: CN1CCC(CNc2ccc3ncc(-c4cccc(OC(F)(F)F)c4)n3n2)CC1
In short: as §1

saracatinib = compound: CN1CCN(CCOc2cc(OC3CCOCC3)c3c(Nc4c(Cl)ccc5c4OCO5)ncnc3c2)CC1 [saracatinib]
In short: as §1

sotrastaurin = compound: CN1CCN(c2nc(C3=C(c4c[nH]c5ccccc45)C(=O)NC3=O)c3ccccc3n2)CC1 [sotrastaurin]
In short: as §1

alvocidib = compound: CN1CC[C@H](c2c(O)cc(O)c3c(=O)cc(-c4ccccc4Cl)oc23)[C@H](O)C1 [alvocidib]
In short: as §1

Tubastatin A = compound: CN1CCc2c(c3ccccc3n2Cc2ccc(C(=O)NO)cc2)C1 [Tubastatin A]
In short: as §1

[6] = compound: CNC(=O)C1=CC=CC=C1NC2=NC(=NC=C2Cl)NC3=C(C=C(C=C3)N4CCOCC4)OC
In short: as §1

defactinib = compound: CNC(=O)c1ccc(Nc2ncc(C(F)(F)F)c(NCc3nccnc3N(C)S(C)(=O)=O)n2)cc1 [defactinib]
In short: as §1

[7] = compound: CNc1nc(-c2ccc3c(N)n[nH]c3c2)cc(N2C[C@@H](C(=O)NC3CCCCC3)CC[C@H]2C)n1
In short: as §1

encorafenib = compound: COC(=O)N[C@@H](C)CNc1nccc(-c2cn(C(C)C)nc2-c2cc(Cl)cc(NS(C)(=O)=O)c2F)n1 [encorafenib]
In short: as §1

[8] = compound: COC(=O)[C@H](CCSC)NC(=O)C1=C(C=C(C=C1)NC[C@H](CS)N)C2=CC=CC=C2
In short: as §1

alisertib = compound: COc1cc(Nc2ncc3c(n2)-c2ccc(Cl)cc2C(c2c(F)cccc2OC)=NC3)ccc1C(=O)O [alisertib]
In short: as §1

[9] = compound: COc1cc2nc(-c3cc(F)ccc3O)nc(N[C@@H]3CNC[C@H]3C(C)(C)O)c2cc1OC
In short: as §1

gefitinib = compound: COc1cc2ncnc(Nc3ccc(F)c(Cl)c3)c2cc1OCCCN1CCOCC1 [gefitinib]
In short: as §1

Measured: log2 fold change

BCKDHB (UniProt P21953)
inactive: vemurafenib 0.068 | [1] 0.032 | barasertib 0.065 | [2] -0.102 | volasertib -0.079 | [3] -0.064 | [4] 0.022 | [5] -0.02 | saracatinib -0.012 | sotrastaurin 0.129 | alvocidib 0.062 | Tubastatin A 0.011 | [6] 0.008 | defactinib -0.008 | [7] -0.031 | encorafenib -0.074 | [8] 0.107 | alisertib -0.019 | [9] -0.015 | gefitinib -0.024

BRI3BP (UniProt Q8WY22)
inactive: vemurafenib 0.057 | [1] -0.068 | barasertib -0.025 | [2] -0.223 | volasertib -0.025 | [3] 0.069 | [4] 0.114 | [5] 0.096 | saracatinib 0.136 | alvocidib -0.128 | Tubastatin A 0.091 | [6] -0.253 | defactinib -0.069 | [7] -0.002 | encorafenib 0.09 | [8] 0.09 | alisertib -0.179 | [9] -0.066 | gefitinib -0.055

BLOC1S4 (UniProt Q9NUP1)
inactive: vemurafenib -0.008 | [1] -0.001 | barasertib 0.044 | [2] 0.063 | volasertib 0.031 | [3] -0.01 | [4] 0.047 | [5] -0.006 | saracatinib 0.035 | sotrastaurin 0.03 | alvocidib 0.064 | Tubastatin A 0.022 | [6] 0.013 | defactinib 0.03 | [7] 0.043 | encorafenib -0.026 | [8] 0.025 | alisertib -0.011 | [9] -0.014 | gefitinib -0.031

BORCS6 (UniProt Q96GS4)
inactive: vemurafenib -0.016 | [1] 0.001 | barasertib 0.106 | [2] 0.116 | volasertib 0.049 | [3] -0.054 | [4] 0.019 | [5] 0.107 | saracatinib 0.042 | sotrastaurin 0.024 | alvocidib 0.024 | Tubastatin A -0.01 | [6] -0.01 | defactinib 0.003 | [7] -0.04 | encorafenib 0.046 | [8] -0.015 | alisertib -0.008 | [9] -0.006 | gefitinib 0.061

BAIAP2 (UniProt Q9UQB8)
inactive: vemurafenib -0.004 | [1] -0.009 | barasertib -0.01 | [2] 0.007 | volasertib 0.031 | [3] 0.015 | [4] 0.033 | [5] -0.037 | saracatinib 0.015 | sotrastaurin -0.046 | alvocidib 0.023 | Tubastatin A 0.038 | [6] -0.015 | defactinib -0.008 | [7] 0.02 | encorafenib 0.026 | [8] 0.022 | alisertib -0.013 | [9] -0.013 | gefitinib -0.019

BCAT1 (UniProt P54687)
inactive: vemurafenib 0.024 | [1] 0.01 | barasertib -0.038 | [2] 0.012 | volasertib 0.006 | [3] 0.002 | [4] -0.066 | [5] 0.044 | saracatinib 0.004 | sotrastaurin -0.02 | alvocidib -0.026 | Tubastatin A 0.041 | [6] -0.008 | defactinib -0.027 | [7] 0.054 | encorafenib 0.003 | [8] -0.022 | alisertib 0.026 | [9] 0.002 | gefitinib -0.006

BECN1 (UniProt Q14457)
inactive: vemurafenib 0.002 | [1] 0.038 | barasertib -0.015 | [2] -0.01 | volasertib -0.042 | [3] -0.041 | [4] -0.006 | [5] -0.033 | saracatinib 0.101 | sotrastaurin 0.005 | alvocidib 0.001 | Tubastatin A -0.024 | [6] 0 | defactinib -0.025 | [7] -0.022 | encorafenib -0.032 | [8] -0.007 | alisertib -0.016 | [9] -0.013 | gefitinib 0.03

BCR (UniProt P11274)
inactive: vemurafenib 0.012 | [1] 0.043 | barasertib -0.021 | [2] -0.062 | volasertib -0.056 | [3] 0.015 | [4] -0.112 | [5] -0.029 | saracatinib 0.024 | sotrastaurin -0.018 | alvocidib -0.007 | Tubastatin A -0.181 | [6] 0.002 | defactinib -0.008 | [7] -0.005 | encorafenib 0.036 | [8] 0.085 | alisertib -0.008 | [9] -0.021 | gefitinib -0.024
